Test results: PMC7862700
Only a part is listed here, and it is no random draw. For part of these data: At the low end of the ranking the order means little. Some of the results follow. For part of these data: The source does not settle which construct or isoform was used.

The chains behind the UniProt entries cited, without tags or fusion partners. Where a name states a change or a piece, a line headed by the entry shows the natural chain unless it says otherwise.
UniProt Q00613: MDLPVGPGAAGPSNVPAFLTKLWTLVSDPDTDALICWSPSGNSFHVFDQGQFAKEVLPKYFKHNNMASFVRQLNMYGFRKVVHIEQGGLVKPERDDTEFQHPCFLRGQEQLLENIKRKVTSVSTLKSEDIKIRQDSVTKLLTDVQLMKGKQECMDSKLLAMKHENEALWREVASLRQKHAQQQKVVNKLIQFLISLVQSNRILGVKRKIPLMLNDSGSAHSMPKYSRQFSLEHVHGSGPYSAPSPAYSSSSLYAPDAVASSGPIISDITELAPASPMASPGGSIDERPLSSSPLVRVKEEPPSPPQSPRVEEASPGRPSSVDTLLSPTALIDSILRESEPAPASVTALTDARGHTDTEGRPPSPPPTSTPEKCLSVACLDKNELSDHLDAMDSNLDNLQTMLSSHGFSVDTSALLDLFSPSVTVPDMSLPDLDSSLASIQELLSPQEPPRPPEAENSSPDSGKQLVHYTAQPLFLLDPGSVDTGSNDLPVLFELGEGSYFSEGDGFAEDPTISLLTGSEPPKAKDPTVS

Target: HSF1 (UniProt Q00613)
Assay: DAPPL (digital affinity profiling via proximity ligation, sequencing)
Settings: 10 mM Tris-HCl pH 7.5, 50 mM NaCl, 1 mM DTT, 4% glycerol, room temperature, 30 min; GST-TFs on glutathione beads, 16-mer random dsDNA library, 0.1% …; high values mean tight binding; double strand, one strand shown; scale: fold enrichment (6-mer frequency, TF over GST control)

Row | Sequence | binding signal
1 | TCGGTT | 0.807
2 | CGGCGT | 0.694
3 | CGTAGT | 0.673
4 | AGTGCG | 0.695
5 | CAAGGG | 0.764
6 | TCGGAC | 0.343
7 | GGAGAA | 0.475
8 | GAAGGC | 0.837
9 | AGCGTA | 0.867
10 | GCCGGT | 0.492
11 | AATCGG | 0.682
12 | GACGCC | 0.664
13 | AGGGCA | 0.687
14 | GACACA | 0.663
15 | GTGATT | 0.847
16 | ACACGT | 0.698
17 | CTGTGA | 0.425
18 | GAGATA | 0.82
19 | ACCCAG | 0.748
20 | CGGTGA | 0.385

Row | Sequence | binding signal
21 | TGCGGG | 0.729
22 | GCGGCC | 0.661
23 | CCCAGC | 0.845
24 | CGCGGG | 0.675
25 | GGCGGC | 0.459
26 | TCGGGA | 0.651
27 | CGTTAG | 0.75
28 | AGATAC | 0.954
29 | GACGGC | 0.6
30 | CACCAG | 0.737
31 | AGGTCG | 0.43
32 | CACGAG | 0.894
33 | CGTCGG | 0.39
34 | ACGGGA | 0.529
35 | GACAAT | 0.834
36 | GACGCT | 0.668
37 | TGAGCC | 0.806
38 | GAGTTG | 0.397
39 | CGTGTG | 0.333

Target: T1, ELF2 (UniProt Q15723)
T1 sequence: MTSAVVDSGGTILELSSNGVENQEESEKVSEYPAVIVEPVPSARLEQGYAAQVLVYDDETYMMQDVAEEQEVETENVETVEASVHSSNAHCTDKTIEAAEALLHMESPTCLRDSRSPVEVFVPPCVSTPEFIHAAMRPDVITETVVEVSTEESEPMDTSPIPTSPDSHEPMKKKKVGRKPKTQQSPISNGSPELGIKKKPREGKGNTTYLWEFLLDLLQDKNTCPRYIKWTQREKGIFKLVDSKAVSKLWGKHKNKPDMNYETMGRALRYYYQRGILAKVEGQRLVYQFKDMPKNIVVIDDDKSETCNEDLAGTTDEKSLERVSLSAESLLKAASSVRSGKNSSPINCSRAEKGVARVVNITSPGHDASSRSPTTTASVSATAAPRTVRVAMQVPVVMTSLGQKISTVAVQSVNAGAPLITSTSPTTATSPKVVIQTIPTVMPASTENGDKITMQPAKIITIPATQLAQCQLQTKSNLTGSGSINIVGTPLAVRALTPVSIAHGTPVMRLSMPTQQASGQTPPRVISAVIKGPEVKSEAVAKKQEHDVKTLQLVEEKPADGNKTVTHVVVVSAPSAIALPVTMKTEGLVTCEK
Assay: as above
Settings: 10 mM Tris-HCl pH 7.5, 50 mM NaCl, 1 mM DTT, 4% glycerol, room temperature, 30 min; GST-TFs on glutathione beads, 16-mer random dsDNA library, 0.1% …; high values mean tight binding; double strand, one strand shown; scale: fold enrichment (6-mer frequency, TF over GST control)

Row | Sequence | binding signal
40 | TCGGTT | 0.796
41 | CGGCGT | 0.834
42 | CGTAGT | 0.793
43 | AGTGCG | 0.908
44 | CAAGGG | 0.837
45 | TCGGAC | 0.359
46 | GGAGAA | 0.312
47 | GAAGGC | 0.945
48 | AGCGTA | 0.908
49 | GCCGGT | 0.653
50 | AATCGG | 0.545
51 | GACGCC | 0.809
52 | AGGGCA | 0.8
53 | GACACA | 0.877
54 | GTGATT | 0.727
55 | ACACGT | 0.783
56 | CTGTGA | 0.476
57 | GAGATA | 0.62
58 | ACCCAG | 0.713
59 | CGGTGA | 0.442

Row | Sequence | binding signal
60 | TGCGGG | 0.781
61 | GCGGCC | 0.806
62 | CCCAGC | 0.847
63 | CGCGGG | 0.703
64 | GGCGGC | 0.525
65 | TCGGGA | 0.377
66 | CGTTAG | 0.778
67 | AGATAC | 0.937
68 | GACGGC | 0.685
69 | CACCAG | 0.691
70 | AGGTCG | 0.471
71 | CACGAG | 0.811
72 | CGTCGG | 0.41
73 | ACGGGA | 0.559
74 | GACAAT | 0.902
75 | GACGCT | 0.77
76 | TGAGCC | 0.771
77 | GAGTTG | 0.497
78 | CGTGTG | 0.433
